Results on ten compounds are retold here after patent publication US7001907B2, “Peptide-containing α-ketoamide cysteine and serine protease inhibitors” (Cephaon, Inc., priority 1997, dated 2006).

The chains behind the UniProt entries cited, without tags or fusion partners.
UniProt P07384, whole entry: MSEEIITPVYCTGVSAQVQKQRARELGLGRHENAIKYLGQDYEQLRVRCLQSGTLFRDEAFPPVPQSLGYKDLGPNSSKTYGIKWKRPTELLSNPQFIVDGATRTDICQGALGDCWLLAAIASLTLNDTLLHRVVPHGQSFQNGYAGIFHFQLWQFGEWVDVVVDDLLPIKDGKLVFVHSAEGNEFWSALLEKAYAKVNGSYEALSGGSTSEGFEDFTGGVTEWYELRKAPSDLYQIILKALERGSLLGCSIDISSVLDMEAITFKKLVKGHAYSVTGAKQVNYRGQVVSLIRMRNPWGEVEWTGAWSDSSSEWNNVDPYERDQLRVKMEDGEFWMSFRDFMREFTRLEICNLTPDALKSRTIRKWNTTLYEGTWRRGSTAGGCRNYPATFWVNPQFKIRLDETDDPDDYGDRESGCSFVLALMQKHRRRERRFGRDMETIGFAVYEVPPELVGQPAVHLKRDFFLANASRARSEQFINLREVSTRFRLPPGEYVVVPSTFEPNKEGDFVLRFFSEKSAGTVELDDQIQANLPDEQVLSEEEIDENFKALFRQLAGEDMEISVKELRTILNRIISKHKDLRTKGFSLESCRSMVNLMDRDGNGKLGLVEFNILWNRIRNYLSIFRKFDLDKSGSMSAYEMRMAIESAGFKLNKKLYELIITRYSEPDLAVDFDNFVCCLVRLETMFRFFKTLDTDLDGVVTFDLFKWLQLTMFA
UniProt P04632, whole entry partner: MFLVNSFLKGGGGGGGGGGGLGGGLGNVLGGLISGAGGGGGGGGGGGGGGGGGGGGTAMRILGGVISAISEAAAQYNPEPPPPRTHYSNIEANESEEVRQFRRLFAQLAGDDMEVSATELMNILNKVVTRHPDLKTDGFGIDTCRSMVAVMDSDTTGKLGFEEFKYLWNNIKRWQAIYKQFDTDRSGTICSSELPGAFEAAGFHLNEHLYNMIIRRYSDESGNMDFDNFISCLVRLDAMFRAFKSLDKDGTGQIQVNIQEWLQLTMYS

Like-named read-outs stand apart in the source and are kept apart here. The structures given here were assigned with low confidence; some may be wrong.

The test concerns the target Recombinant human calpain I (Homo sapiens, UniProt P07384). Briefly: Inhibition of cysteine protease activity: calpain I, Succ-Leu-Tyr-MNA substrate hydrolysis. To be noted: read-out: Calpain IC50 nM.
[1] abbreviates: Table 5, achiral P2 mimetic α-ketoamides.

`CCN(C)Cc1cccc(-c2ccc(S(=O)(=O)NCCNC(=O)C(=O)[C@H](Cc3ccccc3)NC(=O)[C@@H](COCc3ccccc3)NS(C)(=O)=O)s2)c1`: where the note is “Table 4, α-ketoamides”, the IC50 was found to be 10 nM.
`CC/C=C/CC(=O)N[C@@H](Cc1ccccc1)C(=O)C(=O)NCCNS(=O)(=O)c1ccc(-c2ccccn2)s1`: the 50% inhibitory concentration (IC50) under setting [1] was 1000 nM.
On the same count and under the same terms, the same measure for `O=C(NCCNS(=O)(=O)c1ccc(-c2ccon2)s1)C(=O)[C@H](Cc1ccccc1)NC(=O)c1c(F)cccc1C(F)(F)F`: 58 nM; for `O=C(NCCNS(=O)(=O)c1ccc(-c2ccccn2)s1)C(=O)[C@H](Cc1ccccc1)NC(=O)c1c(F)c(F)c(F)c(F)c1F`: 28 nM; for `CC(=O)Nc1cccc(-c2ccc(S(=O)(=O)NCCNC(=O)C(=O)[C@H](Cc3ccccc3)NC(=O)c3c(Cl)cccc3Cl)s2)c1`: 20 nM.
As to `O=C(NCCNS(=O)(=O)c1ccc(-c2ccon2)s1)C(=O)[C@H](Cc1ccccc1)NC(=O)c1c(F)c(F)c(F)c(F)c1F`, under setting [1], the IC50 was found to be 32 nM.
Take `CS(=O)(=O)N[C@H](COCc1ccccc1)C(=O)N[C@@H](Cc1ccccc1)C(=O)C(=O)NCCNS(=O)(=O)c1ccc(-c2cccs2)s1`: under “Table 2, linear α-ketoamides”, the IC50 turned out to be 11 nM.
For the compound `CC(=O)N1CCN(Cc2ccc(S(=O)(=O)NCCNC(=O)C(=O)[C@H](Cc3ccccc3)NC(=O)c3c(Cl)cccc3Cl)cc2)CC1`, the IC50 under setting [1] came to 100 nM.
Consider `O=C(NCCNS(=O)(=O)c1ccc(-c2ccccn2)s1)C(=O)[C@H](Cc1ccccc1)NC(=O)c1c(F)cc(F)cc1F`, for which the half-maximal inhibitory concentration (IC50) under setting [1] amounted to 85 nM.
Turning to `C[C@@H](CNC(=O)C(=O)[C@H](Cc1ccccc1)NC(=O)[C@@H](COCc1ccccc1)NS(C)(=O)=O)NS(=O)(=O)c1ccccc1`, under “Table 3, branched-chain α-ketoamides”, the IC50 came out at 26 nM.
